# Measurements taken from PubChem BioAssay AID758 (NMMLSC, 2007).
# In all, about 190,000 compounds went through this assay and about 110 (0.058%) were called active. The inconclusive results got no clear call from the source; some entries with a clear call stand among them for comparison.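 Rule for the calls: active = fluorescent GTP binding to Rab7 beads changed by at least 20 points from the 100% baseline, either direction, mostly lower; inconclusive = compound itself probably fluorescent, or too few beads counted; inactive = the rest.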
# Test system: Rab7 GTPase wild type (dog), Bodipy-FL-GTP binding
# Experiment: modulators of GTP binding to Rab7, primary screen, biochemical, wildtype, multiplex bead flow cytometry (AID 758);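 note: median green fluorescence of bound Bodipy-FL-GTP per Rab7 bead population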
# Settings: GST-Rab7 beads, fluorescent GTP binding, at 10 µM, actives lie on both sides, untreated = 100%, excess cold GTP = 0%
row,Compound,GTP binding activity (percent of control)
1,CC(C)NC(=O)CSc1nnc(-c2ccncc2)n1-c1ccccc1,inconclusive: 102%
2,CCn1c(=O)cc(OCC(=O)NCCCN2CCN(c3cccc(Cl)c3)CC2)c2ccccc21,inconclusive: 92%
3,CCCCCOc1ccc(NC(=O)C(=O)NCCC2=CCCCC2)cc1,inconclusive: 106%
4,O=S(=O)(NC1CCCC1)c1cccc(S(=O)(=O)N2CCC(n3nnc4ccccc43)CC2)c1,inconclusive: 98%
5,O=C(CSC1CC(=O)N(c2ccc(C(=O)O)cc2)C1=O)Nc1ccc(Cl)cc1 (stereo unspecified),inactive: 95%
6,COCc1cc(C)nc2sc(C(=O)Nc3nccs3)c(N)c12,inconclusive: 82%
7,CCOC(=O)C1C(=O)OC(C)(C)C1C(C)C(=O)c1ccc(C)cc1C (stereo unspecified),inconclusive: 99%
8,N#Cc1ccc(OCC(=O)NCCc2ccc(S(N)(=O)=O)cc2)cc1,inconclusive: 101%
9,O=C(O)C12C[C@H]3C[C@@H](C1)CC(n1ncc(N4CCN(c5ccccc5)CC4)c(Cl)c1=O)(C3)C2,inactive: 101%
10,Cc1ccc(S(=O)(=O)NCC(=O)OC(C)C(=O)Nc2ncc(Cl)cc2Cl)cc1 (stereo unspecified),inconclusive: 97%
11,Cc1sc2ncnc(Sc3ccccc3C(=O)O)c2c1C,active: 122% [activator]
12,C=CCNC(=O)c1cc(Cl)ccc1Cl,inconclusive: 103%
13,NS(=O)(=O)c1cccc(NC(=O)CN2CCCc3ccccc32)c1,inactive: 93%
14,Brc1ccc(Nc2nc3ccccc3n3nnnc23)cc1,inconclusive: 104%
15,Cc1ccccc1OCCC(=O)OCC(=O)NC(C)c1ccccc1 (stereo unspecified),inactive: 95%
16,CSCCC(NC(=O)c1ccccc1)C(=O)O (stereo unspecified),inconclusive: 94%
17,O=C(O)CCN1CCc2ccccc2C1c1cccs1 (stereo unspecified),inactive: 98%
18,Cc1c(CN(C)C(=O)/C=C/c2ccc([N+](=O)[O-])cc2)cnn1C,inactive: 98%
19,Cc1cc(Nc2ccc(F)cc2)n2nc(C)nc2n1,inconclusive: 103%
20,COc1ccc(-c2csc(C3=C(O)CN(C(C)C)C3=N)n2)cc1OC,inactive: 97%
21,COc1ccccc1NC(=O)c1ccc(-c2ccc(Br)cc2)o1,inconclusive: 90%
22,COc1ccc(-c2[nH]ncc2CN(Cc2nccn2C)C(C)C)cc1F,inactive: 100%
23,Cc1ccc2cc3c(NC(=O)C4CCCO4)nn(CC(C)C)c3nc2c1 (stereo unspecified),inconclusive: 104%
24,Fc1ccccc1NC(=S)N1CCN(Cc2ccccc2)CC1,inconclusive: 101%
25,O=C(Nc1cccc(F)c1)NC1CC2CCCC(C1)N2C1CC1 (stereo unspecified),inconclusive: 102%
26,Cc1ccc(S(=O)(=O)N2CC3(C)CN(S(=O)(=O)c4ccc(C)cc4)CC(C)(C2)C3O)cc1 (stereo unspecified),inactive: 104%

# Rewritten with tabs: 2 of the compounds above
row	Compound	GTP binding activity (percent of control)
22	COc1ccc(-c2[nH]ncc2CN(Cc2nccn2C)C(C)C)cc1F	inactive: 100%
24	Fc1ccccc1NC(=S)N1CCN(Cc2ccccc2)CC1	inconclusive: 101%
